# Laboratory results: PubChem BioAssay AID977622 (Broad Institute, 2014)
# The other results are listed elsewhere or left out. Shown are side measurements of this screen, not its main read-out; they come without a call.
# What was measured:
# [1] = wild-type E. coli growth inhibition versus h38 humanized strain – h38 mutant RFP, wild-type GFP, cherry-pick, dose response (AID 977622); conditions: E. coli mixed culture, 24 h, total growth OD600 at 50 uM
# [2] = tested on: E. coli h38 humanized mutant ribosome RFP fluorescence, mixed culture, 24 h; assay: as above; conditions: h38 mutant RFP at 50 uM
Compound,activity change [1] [%],activity change [2] [%]
CCOC(=O)c1sc2nc(NC(=O)C(C)(C)C)sc2c1C,-95.8,-54.7
O=C(c1cccs1)c1sccc1Cc1ccccc1,-50.4,3.21
CC(=O)N1CCOc2ccc(S(=O)(=O)N(C)c3ccc(C)cc3)cc21,-13.2,-21.5
Cc1cccc(S(=O)(=O)N2CCCCN3[C@@H](CO)[C@H](c4ccc(C#CC(C)C)cc4)[C@@H]3C2)c1,-84.9,145
Cc1cc2nc(-c3ccc4c(c3)CCC4)ccn2n1,-25.9,
O=S(=O)(c1cnc(Cl)c(Cl)c1)N1CCCc2ccccc21,-53.6,-31
N#Cc1ccccc1CSc1nc2ccc(NC(=O)c3ccccc3C(=O)O)cc2s1,-23.1,-30.2
Cc1[nH]nc2c1C(c1ccc(F)cc1)N(Cc1ccccc1)C2=O (stereo not drawn),-26,-12.6
COc1ccc(NC(=O)Nc2cccc3c2O[C@H](CN(C)S(=O)(=O)c2ccc(C)cc2)[C@H](C)CN([C@@H](C)CO)C3=O)cc1,-36.9,-21.5
COc1ccc(Nc2oc(-c3ccco3)nc2S(=O)(=O)c2ccc(F)cc2)cc1,-10.3,
COc1cccc(C(=O)Nc2cc(C)nn2-c2ccccc2)c1OC,-57,-28.9
C=CCn1c(-c2sc(-c3ccccc3)nc2C)n[nH]c1=S,-41.6,-25.3
O=[N+]([O-])c1ccccc1CN1CCN(S(=O)(=O)c2ccccc2)CC1,-40.9,-23
O=C(Nc1ccc2c(c1)OCO2)c1cc(-c2ccncc2)nc2ccccc12,-47.3,-23.3
CCn1cc(Br)c(C(=O)Nc2ccc(C(=O)OC(C)C)cc2)n1,-23.1,-19.7
CC(=O)Oc1ccc(N(C(C)=O)S(=O)(=O)c2ccc(Cl)cc2)c2ccccc12,-6.76,11.2
CC(C)CC#Cc1ccc([C@@H]2[C@H](CO)N3CCCCN(S(=O)(=O)c4ccc(F)cc4)C[C@@H]23)cc1,-53.1,49.2
CC(C)NC(=O)N(C)C[C@H]1OCCCC[C@@H](C)Oc2ccc(NC(=O)Nc3cccc4ccccc34)cc2C(=O)N([C@@H](C)CO)C[C@H]1C,-4.38,16.2
O=C(CSCc1c(Cl)cccc1Cl)Nc1cccnc1,-15.4,
O=C(Nc1ccc(Nc2ccccc2)cc1)c1ccc(Cl)cc1[N+](=O)[O-],-81.4,106
C[C@H](CO)N1C[C@H](C)[C@H](CN(C)C)OCCCC[C@H](C)Oc2ccc(NC(=O)Nc3cccc4ccccc34)cc2C1=O,3.16,12
Cn1c(SCCOc2ccccc2F)nc2ccccc2c1=O,-74.1,
COC(=O)c1c(NC(=O)c2ccccc2C(=O)O)sc2c1CCC2,-34.3,

Compound,activity change [1] [%],activity change [2] [%]
CCn1c(SCC(=O)Nc2ccc(OC)cc2)nc2nc3c(cc2c1=O)CCCC3,-39.3,-25.9
Cc1ccc(Oc2ccc(S(=O)(=O)N3CCOCC3)cc2C(N)=O)cc1C,,-39.6
C[C@@H](NC(=O)C[C@@H]1CC[C@@H]2[C@H](COC[C@H](O)CN2C(=O)Nc2cccc(F)c2)O1)c1ccccc1,4.78,21.8
Cc1nc([N+](=O)[O-])c(Br)n1CC(=O)c1ccc(F)cc1,-15.5,-24.5
Cc1ccc(S(=O)(=O)Nc2ccccc2CNc2ccccn2)cc1,-66.9,36
CC1(C)c2ccccc2C(=O)c2ccccc21,-45.1,-12.5
CCc1cc(C(=O)N2CCCC(C(=O)c3cccc4ccccc34)C2)n(C)n1 (stereo not drawn),-22.8,15
Brc1ccc(-n2cnc(-c3ccccc3)c2)cc1,,-31.6
C[C@H]1CCCCO[C@H](CN(C)C(=O)CCCN(C)C)[C@@H](C)CN([C@@H](C)CO)C(=O)c2cc(NC(=O)Nc3cccc4ccccc34)ccc2O1,-5.75,
COc1ccc(-n2ccnc2SCC(=O)NCc2ccccc2)c(OC)c1,-24.8,42.8
O=C(CC(c1ccccc1)c1cc(Br)ccc1O)N1CCCC1 (stereo not drawn),-66.9,
CC(C)Oc1nc(-c2ccccc2Cl)nc2ccccc12,-0.552,14.8
CN1N=C2c3ccccc3CCC2C1c1ccc(F)cc1 (stereo not drawn),-4.84,-14.5
CN(C)CCCN(C(=O)c1ccc(S(=O)(=O)N(C)Cc2ccccc2)cc1)c1nc2c(F)cccc2s1,-48.4,-31.9
CCOC(=O)C(CC)Sc1cc(C)nc2ccc(OC)cc12 (stereo not drawn),-18.4,-12.2
CN(Cc1ccc([N+](=O)[O-])cc1)c1ccccc1,-18.1,-13.1
CCOc1ccccc1NS(=O)(=O)c1ccc(Br)s1,-41.1,20.8
COc1cccc(-c2ccc(NC(=O)C3CCCN(Cc4cnn(C(C)C)c4)C3)cc2)c1 (stereo not drawn),-35.9,-27.9
Cc1ccc(-n2ncc3c(SCc4ccccn4)ncnc32)c(C)c1,-83.5,0.698
CCCn1c(=O)c2ccccc2n2c(SCCOc3ccc(OC)cc3)nnc12,-20.5,-7.27
O=C(CCc1ccccc1)Nc1sc2c(c1C(=O)O)CCCC2,-47.4,
Cc1ccc(-c2n[nH]c(S(C)(=O)=O)c2C#N)cc1,-17.3,7
CCN(CC)C(=O)c1ccc(COc2ccccc2Cl)o1,-38.6,-39

Compound,activity change [1] [%],activity change [2] [%]
CC(CNc1ccc(Cl)cc1)(CNc1ccc(Cl)cc1)[N+](=O)[O-],-35.5,-16.9
CC(C)Oc1ccc(C(=O)Nc2cccc3cccnc23)cc1,-15.8,
Nc1c(Cl)cc(C2=NCCn3nc4ccccc4c32)cc1Cl,-57.7,-54.6
C[C@@H]1CN([C@H](C)CO)C(=O)c2cccc(NC(=O)c3ccncc3)c2O[C@@H]1CN(C)S(=O)(=O)c1ccc(Cl)cc1,-39.9,-36.3
Cc1cc(Br)ccc1NC(=O)c1ccco1,-11.2,-12.7
CCc1c(N=O)c(-c2ccccc2)n(O)[n+]1[O-],-9.06,-25
Cc1nnn(C23C[C@@H]4C[C@@H](CC(C(=O)N5CCN(c6ccccc6)CC5)(C4)C2)C3)n1,-45.4,-13.2
Cc1cc(C(=O)c2ccc3ccccc3c2)c(C)o1,-26.2,0.982
CCOc1ccc(S(=O)(=O)N(C)c2ccc(OCC(=O)NCc3cccnc3)cc2)cc1,-21,-6.93
COc1ccc(S(=O)(=O)N(C)C)cc1NC(=O)c1ccc2c(c1)NC(=O)C(C)S2 (stereo not drawn),-31.7,-14.8
CC(=O)OC(COc1cccc(C)c1)Cn1cnc2ccccc21 (stereo not drawn),-47.6,
CCCN(CC(=O)Nc1ccccc1C)C(=O)c1cccc(S(=O)(=O)N2CCc3ccccc3C2)c1,-44.1,-1.68
COc1ccc(CC(=O)Oc2ccc(C)cc2C)cc1,-42.1,-18.5
CCOc1ccc(N(CC(=O)NC(C(C)C)C(C)C)S(=O)(=O)c2ccc(OC)c(OC)c2)cc1,-47.8,-32.8
Cc1ccc(S(=O)(=O)N2CC[C@H]3[C@H](CO)Nc4ccc(Br)cc4[C@H]32)cc1,-65.4,-2.04
O=C(C[n+]1cc(-c2ccc(Cl)c(Cl)c2)n2c1CCC2)OCc1ccccc1,-6.69,9.12
C=CCN(c1ccccc1)S(=O)(=O)c1cccc2cccnc12,-30.7,-16.6
Cc1cc(C(=O)Nc2cccc3c2O[C@H](CN(C)S(=O)(=O)c2ccc(Cl)cc2)[C@H](C)CN([C@@H](C)CO)C3=O)n(C)n1,,-16.8
Cc1ccc(CSCC(=O)N(C)CC(=O)Nc2ccccc2Cl)cc1,-52.3,-2.78
O=C(O)c1cc(-c2ccc(-c3ccc(F)cc3)o2)nc2ccccc12,-82.4,-44.3
c1ccc(CN2CCN(C3CCCSc4ccccc43)CC2)cc1 (stereo not drawn),-39.3,
COc1cccc(NC(=O)COC(=O)Cc2ccc(Cl)cc2)c1,-23.8,14.2
Cc1noc(C)c1NC(=O)Nc1ccc2c(c1)C(=O)N([C@H](C)CO)C[C@@H](C)[C@H](CN(C)C(=O)Nc1ccc3c(c1)OCO3)OCCCC[C@@H](C)O2,-17.1,9.01

Compound,activity change [1] [%],activity change [2] [%]
COc1ccccc1Cn1c(=S)[nH]c2ccccc2c1=O,-59.8,31.8
CS(=O)(=O)c1ccc(Cl)c(NC(=O)CSc2nncn2-c2ccccc2)c1,-11.3,-19.8
Cc1ccsc1C(=O)C1CCCN(Cc2cc(F)ccc2-n2cccn2)C1 (stereo not drawn),-16,-21.7
Clc1ccc2nc(CN3CCCc4ccccc43)cn2c1,-42.2,-22.6
O=C(CSc1nc2ccccc2[nH]1)Nc1ccccc1F,-46.4,-4.15
Cc1cc(C)cc(NC(=O)COC(=O)CC2CCCC2)c1,0.956,35.4
Cc1cccc(Nc2nc(-c3ccc(F)cc3)cs2)n1,-21.3,-17.1
COc1ccc(-c2noc(=O)n2Cc2ccccc2Cl)cc1,-18.2,5.85
Cc1cc(C(=O)Nc2cccc3c2O[C@H](CN(C)S(=O)(=O)c2ccc(Cl)cc2)[C@H](C)CN([C@H](C)CO)C3=O)n(C)n1,-57.8,-37.8
COc1ccccc1NS(=O)(=O)c1cc(C(=O)Nc2ccc(S(=O)(=O)Nc3onc(C)c3C)cc2)ccc1C,-38.7,-45.6
NCCNC(=O)c1c(NC(=O)c2ccccc2)sc2c1CCCC2,-34.1,-31.7
COc1ccccc1C1CCN(Cc2cccc([N+](=O)[O-])c2)CC1,-9.75,31.5
Cc1ccc(S(=O)(=O)NC(C)C(=O)NCc2ccc(Cl)cc2)cc1 (stereo not drawn),-9.75,16.3
O=C(CN1CCCC1)Nc1ccccc1Sc1ccc(Cl)cc1,-68.3,29.3
Cc1cccc(C(=O)NCC(=O)NCCSc2ccc(Br)cc2)c1,-8.35,
CCC[N+]1(CC#CC(O)(c2ccccc2)C2CCCCC2)CCCCC1 (stereo not drawn),-10.7,-12.9
C[n+]1ccccc1/C=C/c1cc(Br)ccc1O,-10.6,32
O=C(NCc1ccccc1)c1ccc(-c2ccccc2F)o1,-69.1,
COc1ccc(NC(=O)CSc2n[nH]c(-c3ccncc3)n2)c([N+](=O)[O-])c1,-6.62,17.5
CC1CCCC(NC(=O)COC(=O)[C@@H]2CC(O)CN2S(=O)(=O)c2ccc3c(c2)OCCO3)C1C (stereo partly drawn),-3.56,
O=C(C[C@H]1CC[C@@H]2[C@H](COC[C@@H](O)CN2C(=O)Nc2cc(Cl)cc(Cl)c2)O1)N1CCOCC1,-31,-12

# Among those listed so far, four have a COOH group.
Compound,activity change [1] [%],activity change [2] [%]
N#Cc1ccccc1CSc1nc2ccc(NC(=O)c3ccccc3C(=O)O)cc2s1,-23.1,-30.2
COC(=O)c1c(NC(=O)c2ccccc2C(=O)O)sc2c1CCC2,-34.3,
O=C(CCc1ccccc1)Nc1sc2c(c1C(=O)O)CCCC2,-47.4,
O=C(O)c1cc(-c2ccc(-c3ccc(F)cc3)o2)nc2ccccc12,-82.4,-44.3
